Assay results as given in article PMC9168619 (The Journal of Biological Chemistry, 2022).
No constants are given. Whether binding was seen depends on the method and setting. In cells and extracts the contact can be indirect. Some binding calls cover weakened binding; strength is not graded here.

Amino acid sequences for entries named in this document (tags omitted). Residues count along the entry.
UniProt P35658: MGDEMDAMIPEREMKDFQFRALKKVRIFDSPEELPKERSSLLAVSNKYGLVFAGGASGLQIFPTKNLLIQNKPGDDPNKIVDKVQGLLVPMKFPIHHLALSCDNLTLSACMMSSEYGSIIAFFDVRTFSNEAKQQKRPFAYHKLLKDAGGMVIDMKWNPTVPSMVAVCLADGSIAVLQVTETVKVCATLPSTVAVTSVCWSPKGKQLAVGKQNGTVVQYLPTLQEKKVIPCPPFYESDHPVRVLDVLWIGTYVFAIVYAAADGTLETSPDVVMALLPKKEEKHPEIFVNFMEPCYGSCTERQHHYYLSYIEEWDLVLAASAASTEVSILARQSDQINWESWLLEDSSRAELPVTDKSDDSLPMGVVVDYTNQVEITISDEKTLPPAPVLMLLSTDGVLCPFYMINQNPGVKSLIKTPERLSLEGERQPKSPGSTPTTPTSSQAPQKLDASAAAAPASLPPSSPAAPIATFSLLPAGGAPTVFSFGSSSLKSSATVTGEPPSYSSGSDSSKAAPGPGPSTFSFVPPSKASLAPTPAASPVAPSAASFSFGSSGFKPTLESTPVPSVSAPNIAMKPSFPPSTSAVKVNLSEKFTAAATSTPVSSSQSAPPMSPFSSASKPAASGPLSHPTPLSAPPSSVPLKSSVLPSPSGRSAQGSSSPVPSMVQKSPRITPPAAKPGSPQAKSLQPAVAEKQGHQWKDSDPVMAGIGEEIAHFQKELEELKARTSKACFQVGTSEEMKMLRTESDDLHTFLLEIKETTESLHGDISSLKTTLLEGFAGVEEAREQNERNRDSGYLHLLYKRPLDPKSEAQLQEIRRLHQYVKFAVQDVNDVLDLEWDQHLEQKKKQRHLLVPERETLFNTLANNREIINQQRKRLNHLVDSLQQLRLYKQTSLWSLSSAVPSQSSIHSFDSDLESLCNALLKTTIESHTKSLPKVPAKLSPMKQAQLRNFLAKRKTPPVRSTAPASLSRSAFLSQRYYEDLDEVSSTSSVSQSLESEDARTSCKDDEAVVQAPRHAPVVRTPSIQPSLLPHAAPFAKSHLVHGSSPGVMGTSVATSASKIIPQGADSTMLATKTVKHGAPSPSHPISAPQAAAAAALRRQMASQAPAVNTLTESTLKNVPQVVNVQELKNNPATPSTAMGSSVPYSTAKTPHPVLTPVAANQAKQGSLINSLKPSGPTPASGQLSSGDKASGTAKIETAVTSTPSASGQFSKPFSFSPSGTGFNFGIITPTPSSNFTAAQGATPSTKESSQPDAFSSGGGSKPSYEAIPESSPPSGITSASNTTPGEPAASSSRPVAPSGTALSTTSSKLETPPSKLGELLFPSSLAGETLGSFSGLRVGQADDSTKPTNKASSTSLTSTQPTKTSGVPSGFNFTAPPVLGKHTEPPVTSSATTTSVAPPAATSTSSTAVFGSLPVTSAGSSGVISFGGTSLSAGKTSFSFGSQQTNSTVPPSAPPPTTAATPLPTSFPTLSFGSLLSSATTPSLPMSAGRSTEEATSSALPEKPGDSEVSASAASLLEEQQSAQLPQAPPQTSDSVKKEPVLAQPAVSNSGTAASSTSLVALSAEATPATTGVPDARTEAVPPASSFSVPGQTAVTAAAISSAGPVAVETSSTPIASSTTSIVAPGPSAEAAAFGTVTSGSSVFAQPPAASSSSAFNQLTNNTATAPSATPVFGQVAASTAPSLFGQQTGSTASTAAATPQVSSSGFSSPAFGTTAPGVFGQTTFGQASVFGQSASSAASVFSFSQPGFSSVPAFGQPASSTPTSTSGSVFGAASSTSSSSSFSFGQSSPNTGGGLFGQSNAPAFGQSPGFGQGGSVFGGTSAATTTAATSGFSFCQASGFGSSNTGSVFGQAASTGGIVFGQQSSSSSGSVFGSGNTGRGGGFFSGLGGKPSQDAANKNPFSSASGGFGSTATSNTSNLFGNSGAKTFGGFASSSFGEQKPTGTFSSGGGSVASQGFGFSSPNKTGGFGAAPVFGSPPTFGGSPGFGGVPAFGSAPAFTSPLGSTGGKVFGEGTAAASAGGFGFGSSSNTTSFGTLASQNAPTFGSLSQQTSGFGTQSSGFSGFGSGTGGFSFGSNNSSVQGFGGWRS
UniProt P52948, residues 1-880: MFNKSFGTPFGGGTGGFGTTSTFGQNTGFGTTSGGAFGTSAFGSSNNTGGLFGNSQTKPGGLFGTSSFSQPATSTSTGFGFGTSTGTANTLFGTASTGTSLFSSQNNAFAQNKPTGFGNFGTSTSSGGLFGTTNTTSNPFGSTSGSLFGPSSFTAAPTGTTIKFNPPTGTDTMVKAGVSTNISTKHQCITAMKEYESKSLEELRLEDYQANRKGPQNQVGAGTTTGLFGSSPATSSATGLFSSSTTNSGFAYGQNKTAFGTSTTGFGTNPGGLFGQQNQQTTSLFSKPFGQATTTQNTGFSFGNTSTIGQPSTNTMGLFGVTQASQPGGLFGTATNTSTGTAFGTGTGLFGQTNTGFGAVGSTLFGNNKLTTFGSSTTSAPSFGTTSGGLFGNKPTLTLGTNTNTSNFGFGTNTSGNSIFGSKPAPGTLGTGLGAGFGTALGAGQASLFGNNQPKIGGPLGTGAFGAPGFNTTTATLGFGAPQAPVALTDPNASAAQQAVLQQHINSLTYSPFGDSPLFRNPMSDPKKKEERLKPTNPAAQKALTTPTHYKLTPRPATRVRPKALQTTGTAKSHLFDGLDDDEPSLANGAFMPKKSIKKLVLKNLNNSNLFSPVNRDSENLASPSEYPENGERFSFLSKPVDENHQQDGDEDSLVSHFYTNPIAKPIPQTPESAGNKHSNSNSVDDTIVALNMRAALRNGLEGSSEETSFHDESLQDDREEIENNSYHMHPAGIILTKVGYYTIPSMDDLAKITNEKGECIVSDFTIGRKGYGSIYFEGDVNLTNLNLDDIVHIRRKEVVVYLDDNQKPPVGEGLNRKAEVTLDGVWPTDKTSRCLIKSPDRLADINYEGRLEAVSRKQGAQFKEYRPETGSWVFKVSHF

Target: Nup214 (human (endogenous in HeLa)) (UniProt P35658)
Assay: co-IP

binding: binds
Substance: Nup98 (from UniProt P52948 1-880)
